In all, about 320,000 compounds went through this assay and about 22,000 (6.9%) were called active. Inconclusive results, whose numbers are uncertain, are shown with a selection of clear calls. The call rests on the fitted dose curve; in most records, active means well fitted inhibition curve with a large enough effect; inconclusive means small, poorly fitted or top-dose-only effect, or another doubt; inactive means no such curve, though single readings can be large or run the other way. Potencies of inconclusive entries are doubtful fits and often do not repeat.
Assay: Primary qHTS for delayed death inhibitors of the malarial parasite plastid, 96 hour incubation
Conditions: P. falciparum luciferase reporter growth; series mostly up to 28.7 µM; activity change, negative = inhibition: at the top concentration
In short: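 Erythrocytes infected with luciferase-expressing P. falciparum were dispensed at 2% hematocrit and 0.05% parasitemia (final), then incubated with compounds 96 hours at 37 C in 5% CO2. Luminescence after detection reagent addition reported growth.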
In the case of Cc1nn(C)c(Oc2ccccc2)c1CCNC(=O)CC(C)C, the “activity change, negative = inhibition” value is reported as inactive: -17.2%. For CCCCOc1ccc(C(=O)N/C(=C\c2cccc([N+](=O)[O-])c2)C(=O)OCc2ccco2)cc1, the Potency was inconclusive: 11.7 µM [inhibitor, single point]. With COc1cc(NC(=S)N2c3ccccc3CC2C)cc(OC)c1 (centres undefined) the Potency was inconclusive: 20.8 µM [inhibitor, partial curve, poor fit]. For Cc1ccc(/C=C/C(=O)NCc2ccco2)o1, the “activity change, negative = inhibition” value was inactive: -20.6%. With O=C1c2ccccc2-c2ccc(C(=O)N3CCCCC3)cc21 the “activity change, negative = inhibition” value was inactive: -22.9%. In the case of COc1ccc(C(=O)c2c(O)cc(-c3ccc(OC)cc3)oc2=O)cc1, the Potency is reported as inconclusive: 11.7 µM [inhibitor, single point]. For COc1ccc(-c2csc3nc(C)nc(N4CCN(C(C)=O)CC4)c23)cc1OC, the “activity change, negative = inhibition” value was inactive: 4.6%. In the case of NC1=C([N+](=O)[O-])C(c2ccccc2)C2=C(CCCC2=O)O1 (centres undefined), the “activity change, negative = inhibition” value is reported as inactive: 0.515%. In the case of O=C(NCCc1ccccc1)Oc1ccc(Cl)cc1, the “activity change, negative = inhibition” value is reported as inactive: 83.8%. With CCOc1ccccc1CNC(=O)c1c([N+](=O)[O-])c(C)nn1C the “activity change, negative = inhibition” value was inactive: 3.06%. For NC(=O)C1CN(C(=O)c2cccc(S(=O)(=O)N3CCc4ccccc43)c2)c2ccccc2O1 (centres undefined), the Potency was inconclusive: 18.5 µM [inhibitor, single point]. In the case of S=C(NCC1CCCO1)N1CCN(c2ccccc2)CC1 (centres undefined), the Potency is reported as active: 4.65 µM. For COc1ccc(OC)c(S(=O)(=O)N2CCC3(CC2)CC(=O)c2ccccc2O3)c1, the Potency was inconclusive: 2.33 µM [inhibitor, full curve]. With CCCCC(CCC(=O)O)(C(=O)OCC)c1csc(Nc2ccc(C)cc2)n1 (centres undefined) the Potency was active: 4.65 µM. For O=C(Nc1cccnc1)c1ccc(COc2ccccc2Br)o1, the “activity change, negative = inhibition” value was inactive: -15.8%. With CC(=O)N(C1=C(N2CCOCC2)C(=O)c2ccccc2C1=O)c1ccc(C(=O)O)cc1 the Potency was active: 0.415 µM. With O=C(Nc1cccnc1)c1cc2cc(Br)ccc2o1 the Potency was inconclusive: 4.15 µM [inhibitor, partial curve, poor fit]. For Cn1nc(C(=O)Nc2cccc(Cl)c2)cc1C(=O)Nc1cccc(Cl)c1, the “activity change, negative = inhibition” value was inactive: -1.83%. For COc1cc(OC)cc(C(=O)N[C@H](C(=O)OCC(=O)Nc2cccnc2Cl)C(C)C)c1, the “activity change, negative = inhibition” value was inactive: 22.3%. For O=C(c1cccc(S(=O)(=O)NCc2ccccc2)c1)N1CCN(c2cccc(C(F)(F)F)c2)CC1, the Potency was inconclusive: 6.57 µM [inhibitor, partial curve, poor fit]. For CCCCOc1ccc(Cc2n[nH]c(=S)n2N)cc1, the “activity change, negative = inhibition” value was inactive: 0%. With Cc1nc2ccccc2c(=O)n1NC(=O)C1CCC(C(C)(C)C)CC1 (centres undefined) the Potency was inconclusive: 14.7 µM [inhibitor, single point]. With O=C(Oc1ccc(C(=S)N2CCOCC2)cc1)c1ccccc1 the Potency was inconclusive: 9.28 µM [inhibitor, single point]. For O=C1c2ccccc2C(=O)N1n1cccc1, the “activity change, negative = inhibition” value was inactive: 11.6%. In the case of CCN(CC)C(=O)Cn1cnc2sc(C(=O)N3CCN(c4ccc(OC)cc4)CC3)c(C)c2c1=O, the Potency is reported as inconclusive: 4.15 µM [inhibitor, partial curve]. With COC(=O)c1c(NC(=O)Cc2ccccc2)sc2c1CC(C)(C)NC2(C)C the Potency was inconclusive: 3.7 µM [inhibitor, full curve, poor fit]. With COc1ccc(C(=O)c2ccc(Cl)cc2)cc1 the “activity change, negative = inhibition” value was inactive: 40.7%. For COc1ccc2c(c1)N1CCN=C1N2C, the Potency was inconclusive: 13.1 µM [inhibitor, partial curve]. In the case of O=S(=O)(NNc1ccc(Cl)nn1)c1ccc(F)cc1, the “activity change, negative = inhibition” value is reported as inactive: 0.129%. With O=C(CSc1ccc2ccccc2c1)N1CCN(c2ccc(O)cc2)CC1 the “activity change, negative = inhibition” value was inactive: 2.99%. For O=[N+]([O-])c1ccc(N2CCN(c3nc(-c4ccc(Cl)cc4)cs3)CC2)cc1, the “activity change, negative = inhibition” value was inactive: 6.7%. For O=C(Cc1ccc(Br)cc1)NCCCn1ccnc1, the Potency was inconclusive: 1.17 µM [inhibitor, partial curve, poor fit]. For Cc1cc(C)cc(NC(=O)NC(C)C2CCCO2)c1 (centres undefined), the Potency was inconclusive: 3.29 µM [inhibitor, full curve, poor fit]. With O=C(CSc1ccccc1)N1CCC(N2CCC(C(=O)N3CCCC3)CC2)CC1 the Potency was inconclusive: 11.7 µM [inhibitor, single point]. With Clc1cncc(Cl)c1NNc1c2ccccc2nc2ccccc12 the “activity change, negative = inhibition” value was inactive: 25.1%. In the case of COc1cccc(CN2CCN(C(=O)c3cccc4ccccc34)CC2)c1OC, the Potency is reported as inconclusive: 6.57 µM [inhibitor, partial curve, poor fit]. In the case of COC(=O)c1cn(CC(=O)NCc2cccs2)c2ccccc12, the Potency is reported as active: 13.1 µM. For Cc1cc(C)c(C#N)c(SCCS(=O)(=O)c2ccc(Cl)cc2)n1, the “activity change, negative = inhibition” value was inactive: -20.8%. In the case of CCCCN(Cc1ccco1)C(=O)Cn1ncc2c(=O)oc3ccc(C)cc3c21, the Potency is reported as inconclusive: 2.33 µM [inhibitor, full curve, poor fit]. In the case of O=C(NCCN1CCOCC1)c1ccc(N2CCCC2)c([N+](=O)[O-])c1, the “activity change, negative = inhibition” value is reported as inactive: 10.9%. With O=C(O)CN1C(=O)/C(=C/c2ccccc2Cl)Oc2ccccc21 the “activity change, negative = inhibition” value was inactive: 20.1%. In the case of COc1ccc(CNC(=O)C(=O)NCC2CCCO2)cc1 (centres undefined), the “activity change, negative = inhibition” value is reported as inactive: 9.88%. With CCOC(=O)CSc1nc(C2CC2)cc(-c2ccc(F)cc2)c1C#N the Potency was inconclusive: 10.4 µM [inhibitor, single point]. In the case of Cc1cc(/C=C(\C#N)C(=O)O)c(C)n1-c1ccc(Br)cc1, the Potency is reported as inconclusive: 11.7 µM [inhibitor, single point]. With COc1ccc2cc(CN(CCCN3CCOCC3)Cc3nnnn3C3CCCCC3)c(=O)[nH]c2c1 the Potency was inconclusive: 14.7 µM [inhibitor, single point]. For Cn1c2c(c(=O)n(C)c1=O)NC1(N2)C(=O)Nc2ccccc21 (centres undefined), the Potency was inconclusive: 10.4 µM [inhibitor, single point]. With CCCn1c(SCC(=O)Nc2ccccc2-c2ccccc2)nnc1-c1ccoc1C the Potency was inconclusive: 10.4 µM [inhibitor, single point]. With Cc1onc(-c2ccccc2)c1C(=O)N1CCN(Cc2ccccc2)CC1 the “activity change, negative = inhibition” value was inactive: 7.23%. For COCCN(C(=O)c1snc(C(N)=O)c1N)C(C(=O)NC1CCCCC1)c1ccc(F)cc1 (centres undefined), the Potency was inconclusive: 9.28 µM [inhibitor, single point]. In the case of O=C(O)c1ccccc1-c1ccccc1C(=O)Nc1cccc(O)c1, the Potency is reported as inconclusive: 0.465 µM [inhibitor, full curve, poor fit]. For CN(CC(=O)Nc1ccc(F)cc1)c1ccc(S(=O)(=O)N2CCCCC2)cc1[N+](=O)[O-], the Potency was inconclusive: 16.5 µM [inhibitor, single point]. For O=[N+]([O-])c1ccc(CSc2nnc(Cc3ccccc3)n2-c2ccc(F)cc2)cc1, the Potency was inconclusive: 3.7 µM [inhibitor, single point]. For Cc1ccccc1C(=O)N1CCC(C(=O)NC2CCCCC2)CC1, the Potency was inconclusive: 0.294 µM [inhibitor, single point]. In the case of N#CC[C@H](c1ccccc1)N1CCN(Cc2ccccc2)CCC1=O, the Potency is reported as inconclusive: 0.0185 µM [inhibitor, full curve]. For C=CCOc1c(CNc2ccc(C(=O)O)cc2)cccc1OC, the Potency was active: 4.65 µM. In the case of CCN1CCCC(OC(=O)c2cc(-c3ccc(C)cc3)nc3ccccc23)C1 (centres undefined), the Potency is reported as inconclusive: 11.7 µM [inhibitor, single point]. For CNc1c(NS(=O)(=O)c2ccc(Cl)s2)c(=O)oc2ccccc12, the “activity change, negative = inhibition” value was inactive: 2.64%. In the case of CCC(C)NC(=O)c1cc2cc3ccc(OC)cc3nc2o1 (centres undefined), the “activity change, negative = inhibition” value is reported as inactive: 8.55%. In the case of C=CCn1c(CSCc2ccccc2)nnc1SCC(=O)NCc1ccccc1, the Potency is reported as inconclusive: 0.415 µM [inhibitor, full curve, poor fit]. With O=C(c1ccccc1F)N1CCN(C2CCC(c3ccccc3)CC2)CC1 (centres undefined) the Potency was inconclusive: 11.7 µM [inhibitor, single point]. In the case of COc1ccc(Cl)cc1NC(=O)Nc1cnccn1, the Potency is reported as inconclusive: 18.5 µM [inhibitor, single point]. With O=C(CSc1nc(-c2ccco2)cc(C(F)(F)F)n1)N1CCCc2ccccc21 the Potency was inconclusive: 7.38 µM [inhibitor, partial curve, poor fit]. In the case of CCCCN1CC(=O)N2[C@H]3c4cc(Br)ccc4OC[C@@H]3[C@H](C(=O)OCC)[C@]2(C)C1=O, the Potency is reported as inconclusive: 4.15 µM [inhibitor, partial curve, poor fit]. For CC(=O)Oc1ccccc1C(=O)Oc1ccc(/C=N/n2cnnc2)cc1, the Potency was active: 8.28 µM. For CCOc1ccccc1N1CCN(C(=O)/C=C/c2cccc([N+](=O)[O-])c2)CC1, the Potency was inconclusive: 4.65 µM [inhibitor, partial curve, poor fit]. In the case of CC(C)=CCN1CCN(CCCc2ccccc2)CC1CCO (centres undefined), the Potency is reported as inconclusive: 16.5 µM [inhibitor, single point]. For CN(CC(=O)Nc1ccc(Cl)c(C(F)(F)F)c1)C(=O)C1CC(=O)N(CCc2ccccc2)C1 (centres undefined), the Potency was inconclusive: 18.5 µM [inhibitor, single point]. For COc1ccccc1/C=C/C(=O)Oc1cccc2cccnc12, the “activity change, negative = inhibition” value was inactive: -19.4%. With CSc1ccccc1NC(=O)CN1CCN(c2ccccn2)CC1 the Potency was active: 8.28 µM. With Cc1ccc(N2CCN(C(=O)N3CCOCC3)CC2)cc1C the “activity change, negative = inhibition” value was inactive: 1.47%. For Oc1cccc2cccnc12, the Potency was inconclusive: 0.465 µM [inhibitor, full curve]. With Cc1ccc2cc(C#N)c(N3CCN(C(=O)c4ccccc4)CC3)nc2c1 the Potency was inconclusive: 10.4 µM [inhibitor, single point]. For CN(CC(=O)Nc1ccccc1Cl)C(=O)C1CCN(C(=O)c2ccc(F)cc2)CC1, the Potency was inconclusive: 9.28 µM [inhibitor, single point]. In the case of CCCSc1nnc(-c2c[nH]c3ccccc23)n1CC, the Potency is reported as inconclusive: 18.5 µM [inhibitor, single point].
On the % scale 0 is the no-effect control and ±100 the full control effect; potency means the concentration at half of the fitted maximal effect.
